# From article doi:10.1101/2025.07.26.666928
# Where two headings read alike, the source gives them in different places. These are yes or no findings as the source states them, for the method shown. In cells and extracts the contact can be indirect. Here binding means that the protein was enriched with, or labelled near, the bait; the list need not be complete. For some of these results: A no says only that the protein was not detected with the bait.
# Experiments:
# [1] = biological target: Ty:YFP:Ty:IC1 (Trypanosoma brucei) (UniProt Q385R8); assay: affinity purification with mass spectrometry
# [2] = biological target: 3HA-BioID2-PIH1D1 (Trypanosoma brucei) (UniProt Q38DW7); assay: proximity labelling
# [3] = biological target: 3HA-BioID2-KTU (Trypanosoma brucei) (UniProt Q388W0); assay: proximity labelling
# [4] = biological target: 3HA-BioID2-PIH1D1 (Trypanosoma brucei) (UniProt Q38DW7); assay: proximity labelling; remark: listed apart in the source
# [5] = biological target: 3HA-BioID2-PIH1D2 (Trypanosoma brucei); assay: proximity labelling
# [6] = biological target: 3HA-BioID2-KTU (Trypanosoma brucei) (UniProt Q388W0); assay: proximity labelling; remark: listed apart in the source
# [7] = biological target: 3HA-BioID2-PIH1D3 (Trypanosoma brucei) (UniProt Q580K1); assay: proximity labelling
molecule,measurement,setting,value
"1,2-Dihydroxy-3-keto-5-methylthiopentene dioxygenase (encoded by Tb927.4.360) (from UniProt Q57UT9) (enzyme)",binding,[1],binds
ODAα (from UniProt Q57WX6),binding,[2],binds
same,binding,[3],no binding
same,binding,[1],binds
ODAβ (from UniProt Q386I6),binding,[1],binds
ankyrin repeat-containing protein (encoded by Tb927.4.1170) (from UniProt Q580E5),binding,[1],binds
"EIF5A (protein, UniProt Q387H6 1-166) MSDDEGQFAEGGAQVGSLTYPMQAGALKKGGYICINGRPCKVIDLSVSKTGKHGHAKVSIVALDIFTGNKMEDQAPSTHNVEVPFVKTATYSVLDIQEDREDPSKPAHLSLMDDEGETRDNLDMPPNAELAGQIKEQFDAGKDVLVVVVSAMGIDQILSFKNAAER",binding,[4],binds
same,binding,[5],binds
same,binding,[6],binds
same,binding,[7],binds
